Holding throughout (test): fluorescence polarization
Data set [1] concerns the target IMP1 KH1-2 variant (UniProt Q9NZI8). The note with it: FP: 300 nM IMP1, 10 nM probe (inhibitor assays), binding buffer stock 50 mM Tris-Cl pH 7.4, 12.5 mM EDTA pH 8, 25% glycerol, 0.01% Triton-X, 37 C 30 min, recombinant protein, label: 3' 6-FL (fluorescein).
Data set [2] addresses IMP1 KH3 variant (UniProt Q9NZI8). The conditions noted are these: FP: 300 nM IMP1, 10 nM probe (inhibitor assays), binding buffer stock 50 mM Tris-Cl pH 7.4, 12.5 mM EDTA pH 8, 25% glycerol, 0.01% Triton-X, 37 C 30 min, recombinant protein, label: 3' 6-FL (fluorescein).
The target in data set [3] is IMP1 KH3-4 variant (UniProt Q9NZI8). The note with it: FP: 300 nM IMP1, 10 nM probe (inhibitor assays), binding buffer stock 50 mM Tris-Cl pH 7.4, 12.5 mM EDTA pH 8, 25% glycerol, 0.01% Triton-X, 37 C 30 min, recombinant protein, label: 3' 6-FL (fluorescein).
The target of data set [4] is IMP1 wild type (UniProt Q9NZI8). The note with it: confluentin, inhibition from 40 uM; FP: 300 nM IMP1, 10 nM probe (inhibitor assays), binding buffer stock 50 mM Tris-Cl pH 7.4, 12.5 mM EDTA pH 8, 25% glycerol, 0.01% Triton-X, 37 C 30 min; recombinant protein; residues 1-577; label: 3' 6-FL (fluorescein).
Data set [5] deals with KH1to4 IMP1 (UniProt Q9NZI8). The note with it: FP: 300 nM IMP1, 10 nM probe (inhibitor assays), binding buffer stock 50 mM Tris-Cl pH 7.4, 12.5 mM EDTA pH 8, 25% glycerol, 0.01% Triton-X, 37 C 30 min, recombinant protein, label: 3' 6-FL (fluorescein).
In data set [6] the target is KH3&4 IMP1 (KH34) (UniProt Q9NZI8). The conditions noted are these: no effect, FP: 300 nM IMP1, 10 nM probe (inhibitor assays), binding buffer stock 50 mM Tris-Cl pH 7.4, 12.5 mM EDTA pH 8, 25% glycerol, 0.01% Triton-X, 37 C 30 min, recombinant protein, label: 3' 6-FL (fluorescein).

For at least one entry, the source does not settle the construct or the ends of the probe. For part of these data: Negatives hold for the conditions tested. For part of these data: A weaker result is weaker than the reference pair of the same experiment. For part of these data: At least one verdict rests on a figure or table, not on a statement of the authors.

For the sequence “AAAUUAGGGCCCAAUUAAUAAUCAGCAAGAAUUUGAUCG [39-nt CD44 RNA (nts 2862-2900)]”, the binding result in data set [1] (no increase even at 1000 nM) is listed as “no binding”; in data set [2] (significantly reduced vs WT), “binds more weakly”; in data set [3] (slightly reduced vs WT), “binds more weakly”.

Turning to “AUGGAGAAACCUGUCUCUUGGAUAUUCUCGACACAGCAGGUCAU [44-nt KRAS RNA (nts 142-185)]”, the binding result in data set [1] is reported as “no binding”; in data set [2], “binds more weakly”; in data set [3], “binds more weakly”; in data set [4] it was “binds more weakly”; in data set [5] (confluentin, inhibition above 40 uM) it was “binds more weakly”; in data set [5] (grifolin up to 100 uM, no effect), “binds”. For the same sequence, the binding result was “binds” in data set [5] (neogrifolin up to 100 uM, no effect); “binds” in data set [6] (grifolin up to 100 uM); “binds” in data set [6] (neogrifolin up to 100 uM).

The values are drawn from publication PMC7199964.
